Part of at least one peptide drawing is inferred or uncertain, most often the ends. Residues, ends and D or L forms follow the SMILES beside them.
Assays:
[1] = test system: IL-2 production by peripheral blood lymphocytes; test: PHA-stimulated in vitro IL-2 production in lymphocytes of normal subjects; type: cell-based, human; conditions: for IL-2 Prodn.: 1 microgram/ml PHA
[2] = Freeze/thaw stability of activity; type: physicochemical; conditions: freeze/thaw cycles
[3] = test system: dermal reaction to tetanus toxoid antigen; conditions: in vivo

## N[C@@H](Cc1ccc(O)cc1)C(=O)NCC(=O)NCC(=O)O [TGG, Tyr-Gly-Gly] (H-Tyr-Gly-Gly-OH)
[1]; Test 1, dilution 1:1000, control 0.69
  IL-2 Prodn.: 1.0 arbitrary unit
[1]; Test 1, dilution 1:2000, control 0.69
  IL-2 Prodn.: 0.93 arbitrary unit
[1]; Test 1, dilution 1:4000, control 0.69
  IL-2 Prodn.: 1.41 arbitrary unit
[1]; Test 1, dilution 1:8000, control 0.69
  IL-2 Prodn.: 1.76 arbitrary unit
[1]; Test 1, dilution 1:10,000, control 0.69
  IL-2 Prodn.: 1.6 arbitrary unit
[1]; Test 1, at dilution 1:8000
  Max. increase of IL-2 production: 61%
[1]; Test 2, dilution 1:4000, control 0.90
  IL-2 Prodn.: 0.99 arbitrary unit
[1]; Test 2, dilution 1:8000, control 0.90
  IL-2 Prodn.: 1.06 arbitrary unit
[1]; Test 2, dilution 1:16,000, control 0.90
  IL-2 Prodn.: 1.28 arbitrary unit
[1]; Test 2, dilution 1:32,000, control 0.90
  IL-2 Prodn.: 1.38 arbitrary unit
[1]; Test 2, at dilution 1:32,000
  Max. increase of IL-2 production: 53%
[1]; normal Subject #1
  Highest ratio of PHA-stimulated IL-2 production, with and without TGG added: 1.4
[1]; normal Subject #2
  Highest ratio of PHA-stimulated IL-2 production, with and without TGG added: 2.55
[2]
  Activity after freeze/thaw: two cycles of freeze/thaw inactivate
[3]
  Approximately optimum concentration for maximum immune effect: ~3 fM
